Assay results reported in the supplement of paper PMC12823440, “Inhibitors supercharge kinase turnover through native proteolytic circuits” (Nature, 2025).
This is one part of the list. Hit calls seldom repeat between salt and free forms of one compound.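 Kinases, fused to nanoluciferase, were expressed in K562 cells; luminescence was measured every 4 h from 2 to 18 h as percent of control (DMSO = 100%, positive control = 0%). A time point is decreased if signal falls significantly (2 sigma). Hits were called by the authors by a rule that is not shown; the count of time points alone does not decide it.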

Chains of the proteins cited; added tags and fusions are not shown. Lines headed by an entry give the natural chain unless they say otherwise; changes in a name come on top.
UniProt Q15208: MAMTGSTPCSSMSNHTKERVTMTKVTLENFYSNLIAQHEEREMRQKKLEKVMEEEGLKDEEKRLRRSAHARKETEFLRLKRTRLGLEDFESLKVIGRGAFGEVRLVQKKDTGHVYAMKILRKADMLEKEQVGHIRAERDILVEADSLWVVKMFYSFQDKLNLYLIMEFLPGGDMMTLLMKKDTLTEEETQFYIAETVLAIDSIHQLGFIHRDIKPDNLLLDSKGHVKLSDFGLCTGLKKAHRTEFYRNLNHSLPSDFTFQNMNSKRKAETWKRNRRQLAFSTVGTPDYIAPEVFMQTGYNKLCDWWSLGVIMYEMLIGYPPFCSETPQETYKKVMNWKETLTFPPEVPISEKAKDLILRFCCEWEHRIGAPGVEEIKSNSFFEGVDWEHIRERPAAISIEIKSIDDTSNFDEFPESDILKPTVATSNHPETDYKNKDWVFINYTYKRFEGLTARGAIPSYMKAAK

Each molecule was assayed against STK38 (UniProt Q15208) (assay: number of time points (of 5) at which kinase-Nluc abundance scored as decreased, DMSO-normalised (count); higher = more persistent destabilization). Conditions: K562; 2-18 h.

SMILES	number of time points
Cc1ccc(-n2nc(C(C)(C)C)cc2NC(=O)Nc2ccc(OCCN3CCOCC3)cc2)cc1 (10 µM)	0
c1ccc(Cn2c(-c3ccc(OC[C@H](C4CCNCC4)n4c(-c5ccccc5)nc5ccccc54)cc3)nc3ccccc32)cc1 [Deltarasin] (2.5 µM)	0
C=CC(=O)N1CC[C@@H](Oc2nc(Nc3ccc(N4CCC(N5CCN(C)CC5)CC4)cc3)c(C(N)=O)nc2CC)C1 [Naquotinib (mesylate)] (2.5 µM)	0
Cc1cc(O)c2c(c1)C(=O)c1cccc(O)c1C2=O [Chrysophanol] (2 µM)	0
Cc1cc(C(=O)NC(C)(C)C)cc(C#Cc2ccc3c4c(oc3c2)C(C)(C)c2cc(NS(C)(=O)=O)ccc2C4=O)n1 (10 µM)	0
Nc1nc(NCCNc2ncc(-n3ccnc3)c(-c3ccc(Cl)cc3Cl)n2)ccc1[N+](=O)[O-] (2.5 µM)	0
Cn1c(CNc2cccc(C(=O)NCc3ccccc3C(F)(F)F)c2)nnc1-c1ccncc1 (10 µM)	0
